Laboratory results published in the supplement of paper PMC9262897, “Low-cost anti-mycobacterial drug discovery using engineered E. coli” (Nature Communications, 2022).
Where a name gives a salt, the structure may show the parent alone. ± gives the standard deviation of the averaged measurements. This list holds what a sample rich in lowest values left over.

These molecules were tested on E. coli TESEC Mtb DapB (assay: growth (OD600 after 10 h); higher = more growth (less inhibition)). Conditions: arabinose induction (level): High; compound 0.1 mM; raw OD600 reference: median of DMSO wells […], cell-free background 0.041.
Procedure: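 TESEC E. coli strains in which the native enzyme is deleted and replaced by arabinose-inducible Mtb Asd, DapB, CysH or TrpD, each grown in its selective medium. Strains were screened against the Prestwick library at 0.1 mM and 1% DMSO in 384-well format at low and high arabinose induction. Growth is read as OD600 after 10 h in triplicate.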

Compound | growth
CN1[C@@H]2CC[C@H]1C[C@@H](OC(=O)C(O)c1ccccc1)C2 (mixture of isomers) [Homatropine hydrobromide (R,S)] | 0.216 ± 0.012

Same assay, conditions: arabinose induction (level): Low; compound 0.1 mM; raw OD600 reference: median of DMSO wells 0.227, cell-free background 0.041

Compound | growth
CN1[C@@H]2CC[C@H]1C[C@@H](OC(=O)C(O)c1ccccc1)C2 (mixture of isomers) [Homatropine hydrobromide (R,S)] | 0.266 ± 0.047
